According to article PMC6448480, “A Two-Way Proteome Microarray Strategy to Identify Novel Mycobacterium tuberculosis-Human Interactors” (Frontiers in Cellular and Infection Microbiology, 2019):
No constants are given. Whether binding was seen depends on the method and setting. For part of these data: Binding seen in cells or lysates may run through a third protein. Some results given as binding are weak or reduced against the parent protein; the word gives no strength. For part of these data: Tags and fused reporters may be left off the sequences shown.

Protein sequences, listed by entry. Tags and fused reporters are not part of them.
UniProt O33252: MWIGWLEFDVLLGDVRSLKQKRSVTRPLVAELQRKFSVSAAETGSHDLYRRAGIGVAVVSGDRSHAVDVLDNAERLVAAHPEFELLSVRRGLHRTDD
UniProt P71925: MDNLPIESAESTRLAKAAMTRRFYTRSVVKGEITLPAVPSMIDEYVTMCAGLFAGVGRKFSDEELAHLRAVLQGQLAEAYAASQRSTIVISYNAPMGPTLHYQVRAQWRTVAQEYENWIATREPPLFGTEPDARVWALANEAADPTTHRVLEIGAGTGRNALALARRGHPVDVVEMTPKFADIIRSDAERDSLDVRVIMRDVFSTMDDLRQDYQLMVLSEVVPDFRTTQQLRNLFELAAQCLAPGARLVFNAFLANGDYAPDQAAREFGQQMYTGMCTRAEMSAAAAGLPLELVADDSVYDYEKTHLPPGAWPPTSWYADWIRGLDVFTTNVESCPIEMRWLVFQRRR
UniProt I6Y9H2: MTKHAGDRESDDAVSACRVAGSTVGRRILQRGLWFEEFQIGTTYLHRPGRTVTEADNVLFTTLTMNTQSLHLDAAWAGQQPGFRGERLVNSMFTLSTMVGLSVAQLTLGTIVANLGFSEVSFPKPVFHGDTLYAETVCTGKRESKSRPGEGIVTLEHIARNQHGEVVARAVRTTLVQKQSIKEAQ
UniProt Q15796: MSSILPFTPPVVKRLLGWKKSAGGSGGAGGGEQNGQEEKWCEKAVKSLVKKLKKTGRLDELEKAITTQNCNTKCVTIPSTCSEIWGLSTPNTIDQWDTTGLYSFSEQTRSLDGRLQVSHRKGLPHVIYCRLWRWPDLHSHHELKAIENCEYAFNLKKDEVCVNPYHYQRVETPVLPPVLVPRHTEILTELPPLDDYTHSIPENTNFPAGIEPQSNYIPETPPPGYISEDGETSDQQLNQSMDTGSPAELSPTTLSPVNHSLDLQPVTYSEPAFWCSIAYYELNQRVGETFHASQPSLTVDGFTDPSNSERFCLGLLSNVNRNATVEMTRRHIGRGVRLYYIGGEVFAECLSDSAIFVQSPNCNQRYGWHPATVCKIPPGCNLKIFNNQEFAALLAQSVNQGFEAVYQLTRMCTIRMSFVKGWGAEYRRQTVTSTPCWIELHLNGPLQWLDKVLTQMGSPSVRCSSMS

Legend:
[1] = molecular target: His tagged Rv2117 (Mycobacterium tuberculosis) (UniProt O33252); experiment: pull-down; His tagged Mtb proteins incubated with lysate of PMA-differentiated THP-1 cells (HEPES lysis buffer pH 7.5, 150 mM NaCl, 1% TritonX-100); detection by automated capillary electrophoresis (Simple Western); only the target purified
[2] = molecular target: His tagged Rv2423 (Mycobacterium tuberculosis) (UniProt P71925); experiment: as above
[3] = molecular target: T1, His tagged Rv0577 (Mycobacterium tuberculosis) (UniProt P9WIR3); experiment: as above
T1 sequence: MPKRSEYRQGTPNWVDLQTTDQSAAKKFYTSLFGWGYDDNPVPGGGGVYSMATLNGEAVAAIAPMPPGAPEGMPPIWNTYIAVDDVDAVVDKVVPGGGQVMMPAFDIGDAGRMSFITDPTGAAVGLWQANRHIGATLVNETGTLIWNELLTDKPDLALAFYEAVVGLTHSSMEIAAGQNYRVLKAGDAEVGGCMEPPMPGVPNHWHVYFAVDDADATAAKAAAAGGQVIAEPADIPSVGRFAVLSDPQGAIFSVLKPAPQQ

[4] = molecular target: Rv2117 (Uncharacterized protein) on the Mtb proteome microarray (Mycobacterium tuberculosis (array of proteins from strains H37Rv and CDC1551)) (UniProt O33252); experiment: peptide or protein array; both purified
[5] = molecular target: Rv2499c (Possible oxidase regulatory-related protein) on the Mtb proteome microarray (Mycobacterium tuberculosis (array of proteins from strains H37Rv and CDC1551)) (UniProt I6Y9H2); experiment: peptide or protein array; both purified
[6] = molecular target: Rv2423 (Methyltransferase type 12) on the Mtb proteome microarray (Mycobacterium tuberculosis (array of proteins from strains H37Rv and CDC1551)) (UniProt P71925); experiment: peptide or protein array; both purified

Measured: binding

endogenously expressed SMAD2 (THP-1) (from UniProt Q15796 1-467)
binds: [1] | [2] | [3]

myc-tagged SMAD2 (from UniProt Q15796 1-467)
binds: [4] | [5] | [6]
